Source: PubChem BioAssay AID743266 (National Center for Advancing Translational Sciences (NCATS), 2014)
Among all 410,000 compounds or so, about 310 (0.076%) were called active. Inconclusive results, whose numbers are uncertain, are shown with a selection of clear calls. The call rests on the fitted dose curve; in most records, active means well fitted activation curve with a large enough effect; inconclusive means small, poorly fitted or top-dose-only effect, or another doubt; inactive means no such curve, though single readings can be large or run the other way. Potencies of inconclusive entries are doubtful fits and often do not repeat.

Protein sequences, listed by entry. Tags and fused reporters are not part of them.
UniProt Q03431, whole entry, looked up: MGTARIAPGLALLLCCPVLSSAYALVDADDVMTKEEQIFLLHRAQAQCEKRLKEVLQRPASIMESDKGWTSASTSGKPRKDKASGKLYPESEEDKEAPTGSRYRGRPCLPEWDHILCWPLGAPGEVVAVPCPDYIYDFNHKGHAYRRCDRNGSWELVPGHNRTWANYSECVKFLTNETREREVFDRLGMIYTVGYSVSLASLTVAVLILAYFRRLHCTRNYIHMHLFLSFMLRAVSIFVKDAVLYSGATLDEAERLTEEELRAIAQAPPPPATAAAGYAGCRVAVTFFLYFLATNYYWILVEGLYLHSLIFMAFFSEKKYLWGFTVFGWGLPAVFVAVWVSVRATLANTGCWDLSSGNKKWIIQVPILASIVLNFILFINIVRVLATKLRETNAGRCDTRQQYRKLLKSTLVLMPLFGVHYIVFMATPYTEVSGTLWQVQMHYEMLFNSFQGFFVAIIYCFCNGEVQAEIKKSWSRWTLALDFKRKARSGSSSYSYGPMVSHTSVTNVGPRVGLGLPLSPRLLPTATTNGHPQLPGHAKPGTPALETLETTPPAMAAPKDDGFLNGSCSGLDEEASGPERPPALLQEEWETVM

These molecules were tested against Parathyroid hormone/parathyroid hormone-related peptide receptor (Homo sapiens) (UniProt Q03431) (assay: qHTS for PTHR1 Agonists: Primary Screen). Conditions: HEK293 GP2 PTHR1 cells, GloSensor cAMP luminescence, 1 h; activation: at 115 µM (top of the series) unless noted; series mostly up to 115 µM.
Procedure, shortened: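 HEK-293-derived GP2 cells expressing PTHR1 and a GloSensor cAMP reporter, 3,000/well, plated overnight, given luciferin plus IBMX (each 0.5 mM as added) for 1 h at 37 °C, then compound for 1 h at 37 °C. Luminescence was read after 15 min at room temperature.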
Further: nearly all actives have a fitted effect of over 55% in size.
Potency means the concentration at half of the fitted maximal effect.

SMILES | Potency | activation | outcome
N/C(=N\NC(=O)c1cccc(F)c1)c1cc2ccccc2oc1=O | inconclusive: 126 µM [activator, single point] | – | –
COc1ccc(-c2cc(C(=O)NCCN3CCOCC3)c3ccccc3n2)c(OC)c1 | – | inactive: -9.59% | –
CCCC(=O)Nc1c2c(nn1-c1ccc(OC)cc1)CS(=O)C2 (stereo unspecified) | inconclusive: 1.78 µM [activator, full curve, poor fit] | – | –
Cc1cnc(C(=O)Oc2c(C)ccc(C)c2C)cn1 | – | inconclusive: 12.6% [activator] | –
CCOc1ccc(CNC(=O)CS(=O)(=O)c2cccc3nsnc23)cc1 | inconclusive: 28.2 µM [activator, single point] | – | –
Cc1cc2nc(-c3ccc(NC(=O)c4ccccc4F)cc3)oc2cc1C | inconclusive: 112 µM [activator, single point] | – | –
COc1ccc(NC(=O)c2cc(-c3ccco3)on2)cc1OC | – | inconclusive: 36.6% [activator] | –
Cc1ccc(C)c(NC(=O)CN(C)S(=O)(=O)c2ccc(F)cc2)c1 | inconclusive: 25.1 µM [activator, partial curve] | – | –
CC(C)C[C@@H](CN1CCC[C@H]1CN1C(=O)C(=O)NC[C@@H]1Cc1ccc(O)cc1)N1C[C@H](Cc2ccc(O)cc2)N(CC2CCCCC2)C(=O)C1=O | inconclusive: 56.2 µM [activator, partial curve, poor fit] | – | –
OCCCN1CCN(CCCOc2ccccc2-c2ccccc2)CC1 | – | inactive: -3.02% | –
O=C(NCCCc1ccccc1)c1ccccc1 | – | inactive: -4.06% | –
Oc1ccc2ccccc2c1N=Nc1ccc(F)cc1 | – | inconclusive: 40.4% [activator] | –
Cc1ccc2c(c1)N(C(C)C(=O)NCc1ccc3c(c1)OCO3)C(=O)CO2 (stereo unspecified) | – | inconclusive: 66% [activator] | –
CC(C)n1c(NCCO)nc2ccccc21 | – | inactive: -19% | –
CCOc1cc(C2NC(=O)NC(O)(C(F)(F)F)C2C(=O)c2ccccc2)ccc1OC (stereo unspecified) | – | inconclusive: 32.7% [activator] [at 57.5 µM] | –
CCOC1=C2[C@@H](CN(S(=O)(=O)c3ccc(C)cc3)[C@H]2c2ccccc2Cl)[C@H]2C(=O)N(C)C(=O)[C@H]2C1 | – | inactive: -9.8% | –
CC(C)c1ccccc1NC(=O)c1cccc(NC(=O)c2ccccc2)c1 | – | – | inactive [at 57.5 µM]
CCOCc1cc(CN2CCCC(CNC(=O)c3ccco3)C2)ccc1OC (stereo unspecified) | – | inactive: -23.3% | –
COc1ccc(CCn2c(C)cc3c(c2=O)C(c2ccncc2)C(C#N)=C(N)O3)cc1OC (stereo unspecified) | inconclusive: 6.31 µM [activator, full curve, poor fit] | – | –
CCCn1c(=O)c2sccc2n2c(CCCC(=O)NCc3ccccc3)nnc12 | inconclusive: 11.2 µM [activator, partial curve, poor fit] | – | –
O=C(N/N=C1/CCCc2ccccc21)C(c1ccccc1)c1ccccc1 | inconclusive: 70.8 µM [activator, single point] | – | –
COc1cccc(NC(=O)CSc2nc(-c3ccccc3Cl)nc3c2Cc2c(CO)cnc(C)c2O3)c1 | inconclusive: 89.1 µM [activator, partial curve, poor fit] | – | –
COc1ccc(C(=O)N2c3cc4c(cc3C(C)=CC2(C)C)OCO4)cc1 | – | inactive: -13.4% | –

Copied from above (2 entries):
SMILES | Potency | activation | outcome
COc1ccc(-c2cc(C(=O)NCCN3CCOCC3)c3ccccc3n2)c(OC)c1 | – | inactive: -9.59% | –
CCCC(=O)Nc1c2c(nn1-c1ccc(OC)cc1)CS(=O)C2 (stereo unspecified) | inconclusive: 1.78 µM [activator, full curve, poor fit] | – | –

Additional entries:

SMILES | Potency | activation | outcome
O=C(NCC1CC1)C1CCCN(S(=O)(=O)c2ccc(-n3cnnn3)cc2)C1 (stereo unspecified) | inconclusive: 35.5 µM [activator, single point] | – | –
Cc1c(N2C(=O)SC(CC(=O)O)C2=O)c(=O)n(-c2ccccc2)n1C (stereo unspecified) | inconclusive: 50.1 µM [activator, single point] | – | –
CC(C)(C)[C@H]1C=C(C(=O)NCc2nc3ccccc3[nH]2)O[C@@H](OCCCCO)C1 | – | – | inactive
CCCOC(=O)c1c(NC(=O)/C=C/c2cnn(C)c2C)sc(C(=O)OC)c1C | – | inactive: -2.24% | –
C=CCOC(=O)C1=C(C)Nc2nnnn2C1c1ccc(OC)cc1OC (stereo unspecified) | inconclusive: 35.5 µM [activator, single point] | – | –
CCCCc1c(-c2ccccc2OC)ncn1CCc1cccc(F)c1 | inconclusive: 5.01 µM [activator, partial curve] | – | –
COc1ccc(CNC(=O)C(c2ccc(C)cc2)N(Cc2cccs2)C(=O)c2ccc3c(c2)OCCO3)cc1 (stereo unspecified) | – | – | inactive [at 57.5 µM]
COc1ccc(Cl)cc1NC(=O)Cn1c(=O)c(-c2ccccc2NC(C)=O)nc2ccccc21 | – | inconclusive: 53.3% [activator] | –
OC(COc1ccc(Cl)cc1)CN1CCCCC1 (stereo unspecified) | – | – | inactive [at 57.5 µM]
Cc1cccc(CNC(=O)c2ccc3c(c2)c(C)c(C)n3Cc2ccccc2)c1 | inconclusive: 35.5 µM [activator, single point] | – | –
COc1cc(OC)cc(-c2nc3nc(C)c(CCC(=O)Nc4ccc(C)cc4C)c(C)n3n2)c1 | – | inactive: -17.5% | –
CCCCN(CCCC)c1nc2ccccc2nc1C(C#N)C(=O)NCCCOC (stereo unspecified) | – | inactive: 2.47% [at 57.5 µM] | –
CC1=C(C(=O)Nc2ccccc2)C(c2ccc(O)cc2)N2C(=O)CSC2=N1 (stereo unspecified) | inconclusive: 56.2 µM [activator, single point] | – | –
N#C/C(=C\c1cc(Cl)cc(Cl)c1O)C(=O)NC1CCCCC1 | inconclusive: 17.8 µM [activator, partial curve] | – | –
Cc1cccc(NC(=S)NCc2ccco2)n1 | – | inactive: -13.5% | –
COC(=O)c1nnn(-c2ccc(Br)cc2)c1C(=O)OC | inconclusive: 17.8 µM [activator, single point] | – | –
CCN(CC)C(=O)Nc1ccc(C(=O)OC)cc1 | inconclusive: 3.55 µM [activator, full curve] | – | –
CCN(CC(=O)Nc1ccc(NC(C)=O)cc1)C(=O)/C=C/c1cn(-c2ccccc2)nc1-c1cccs1 | – | inactive: -3.17% | –
CC(=O)Nc1ccc(S(=O)(=O)NCCc2ccc(S(N)(=O)=O)cc2)cc1 | inconclusive: 3.55 µM [activator, partial curve, poor fit] | – | –
O=C(O)c1ccc(N/N=C/c2cccc(F)c2)cc1 | – | inactive: -0.891% | –
Cc1cc(-c2cc(-c3ccccc3)on2)nc(NC2CCCC2)n1 | inconclusive: 70.8 µM [activator, partial curve, poor fit] | – | –
CC(=O)c1ccc(OCC(O)CN2CCN(c3ccccn3)CC2)cc1 (stereo unspecified) | – | – | inactive
COc1ccc2c(c1)[nH]c1c(=O)n(CC3CCCO3)cnc12 (stereo unspecified) | inconclusive: 39.8 µM [activator, single point] | – | –
